The target of this assay is calpain-2 (CAPN2) (human (MS data aligned to the UniProt human database; cells not named)) (UniProt P17655). The assay is described as follows: co-IP; bidirectional Co-IP of CAPN2 and TRIM8 from cell lysate, SureBeads magnetic beads, Western blotting; cells not given.

The chains behind the UniProt entries cited, without tags or fusion partners. Residues count along the entry.
UniProt P17655, residues 20-700: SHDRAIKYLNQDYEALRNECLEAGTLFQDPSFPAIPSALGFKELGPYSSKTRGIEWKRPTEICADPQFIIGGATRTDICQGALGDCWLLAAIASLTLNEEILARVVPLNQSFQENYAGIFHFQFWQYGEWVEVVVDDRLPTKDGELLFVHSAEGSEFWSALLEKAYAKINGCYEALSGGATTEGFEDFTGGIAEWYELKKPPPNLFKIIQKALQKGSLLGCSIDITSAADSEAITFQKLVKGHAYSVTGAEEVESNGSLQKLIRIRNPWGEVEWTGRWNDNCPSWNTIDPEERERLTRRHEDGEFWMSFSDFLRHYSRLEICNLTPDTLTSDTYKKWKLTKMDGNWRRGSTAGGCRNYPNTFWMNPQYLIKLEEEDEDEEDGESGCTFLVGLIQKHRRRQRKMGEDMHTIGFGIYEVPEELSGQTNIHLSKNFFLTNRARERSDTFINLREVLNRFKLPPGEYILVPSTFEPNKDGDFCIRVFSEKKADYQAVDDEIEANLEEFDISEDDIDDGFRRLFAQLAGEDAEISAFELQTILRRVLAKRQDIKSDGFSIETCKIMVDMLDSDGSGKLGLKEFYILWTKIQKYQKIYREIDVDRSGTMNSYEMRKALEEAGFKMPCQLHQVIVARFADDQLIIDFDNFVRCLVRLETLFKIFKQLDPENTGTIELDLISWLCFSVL

No constants are given. Whether binding was seen depends on the method and setting. Binding seen in cells or lysates may run through a third protein. Some entries that bind do so weakly or less than the wild type.

B1: tripartite motif containing 8 (TRIM8) (protein, UniProt Q9BZR9 1-551)
chain: MAENWKNCFEEELICPICLHVFVEPVQLPCKHNFCRGCIGEAWAKDSGLVRCPECNQAYNQKPGLEKNLKLTNIVEKFNALHVEKPPAALHCVFCRRGPPLPAQKVCLRCEAPCCQSHVQTHLQQPSTARGHLLVEADDVRAWSCPQHNAYRLYHCEAEQVAVCQYCCYYSGAHQGHSVCDVEIRRNEIRKMLMKQQDRLEEREQDIEDQLYKLESDKRLVEEKVNQLKEEVRLQYEKLHQLLDEDLRQTVEVLDKAQAKFCSENAAQALHLGERMQEAKKLLGSLQLLFDKTEDVSFMKNTKSVKILMDRTQTCTSSSLSPTKIGHLNSKLFLNEVAKKEKQLRKMLEGPFSTPVPFLQSVPLYPCGVSSSGAEKRKHSTAFPEASFLETSSGPVGGQYGAAGTASGEGQSGQPLGPCSSTQHLVALPGGAQPVHSSPVFPPSQYPNGSAAQQPMLPQYGGRKILVCSVDNCYCSSVANHGGHQPYPRSGHFPWTVPSQEYSHPLPPTPSVPQSLPSLAVRDWLDASQQPGHQDFYRVYGQPSTKHYVTS
With B1, the binding result is “binds”.

Values taken from publication PMC12160931.
